Consider 1 molecule from patent US20140243356A1.

By UniProt entry, the sequences of proteins in these tests, tags left out. Residues count along the entry.
UniProt P06730, residues 2-217: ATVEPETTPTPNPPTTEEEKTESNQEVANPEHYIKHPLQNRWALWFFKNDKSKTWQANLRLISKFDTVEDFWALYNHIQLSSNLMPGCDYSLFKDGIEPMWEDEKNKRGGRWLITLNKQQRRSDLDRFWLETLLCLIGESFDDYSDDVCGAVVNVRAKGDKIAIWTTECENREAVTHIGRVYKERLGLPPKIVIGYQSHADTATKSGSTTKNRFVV

Results are given in words; binding and its absence hold for the method and conditions named. In cells and extracts the contact can be indirect. Some binding calls cover weakened binding; strength is not graded here.

The target of the experiment is eIF4E (human (endogenous in PC3 human prostate cancer cells)) (UniProt P06730). Kind of experiment: cap-binding assay (m7GTP-sepharose pull-down from PC3-4EBP1^M lysate, western blot). For orientation: A western blot detects proteins with antibodies after separation by electrophoresis.

B1: endogenous 4EBP2 (protein, UniProt Q13542 1-120, looked up)
chain: MSSSAGSGHQPSQSRAIPTRTVAISDAAQLPHDYCTTPGGTLFSTTPGGTRIIYDRKFLLDRRNSPMAQTPPCHLPNIPGVTSPGTLIEDSKVEVNNLNNLNNHDRKHAVGDDAQFEMDI
Turning to B1, the binding result is reported as “binds”.
